Results are given in words; binding and its absence hold for the method and conditions named. For part of these data: Binding can be weak; no strength is given. For part of these data: Where a sequence is shown, tags or fusion partners need not be part of it. Each block holds one molecule with its values, some of them ahead of it.
Assays:
Test in all cases: peptide or protein array; PDZ filter overlay: 96 Class I PDZ domains spotted on a nylon membrane; overlaid with 100 nmol/L GST/NBCn1 (or GST only) in blot buffer (50 mmol/L NaCl, 2% dry milk, 0.1% Tween 20, 10 mmol/L HEPES; pH 7.4) for 1 h at room temperature; detected with HRP-conjugated anti-GST antibody; done three times; both purified
[1] = target: T1, syntrophin α1 (PDZ domain on the array) (UniProt Q13424)
T1 sequence: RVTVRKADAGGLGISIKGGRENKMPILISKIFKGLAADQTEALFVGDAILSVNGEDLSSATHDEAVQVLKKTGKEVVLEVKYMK

PDZK1 (PDZ domain 1) = target: T2, PDZK1 (PDZ domain 1) (UniProt Q5T2W1)
T2 sequence: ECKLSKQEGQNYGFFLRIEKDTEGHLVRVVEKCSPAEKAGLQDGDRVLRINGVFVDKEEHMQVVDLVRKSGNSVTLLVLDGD

[2] = target: T3, MALS‐1 (PDZ domain on the array) (UniProt O14910)
T3 sequence: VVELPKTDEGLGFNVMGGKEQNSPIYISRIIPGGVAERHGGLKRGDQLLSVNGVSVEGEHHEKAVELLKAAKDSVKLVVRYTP

NHERF‐1 (PDZ domain 1) = target: T4, NHERF‐1 (PDZ domain 1) (UniProt O14745)
T4 sequence: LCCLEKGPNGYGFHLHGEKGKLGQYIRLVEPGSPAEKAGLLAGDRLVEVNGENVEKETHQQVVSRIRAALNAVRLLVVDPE

MUPP1 (PDZ domain 7) = target: T5, MUPP1 (PDZ domain 7) (UniProt O75970)
T5 sequence: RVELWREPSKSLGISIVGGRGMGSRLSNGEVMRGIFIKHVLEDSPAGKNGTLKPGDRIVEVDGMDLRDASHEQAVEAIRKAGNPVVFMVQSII

[3] = target: T6, syntrophin γ2 (PDZ domain on the array) (UniProt Q9NY99)
T6 sequence: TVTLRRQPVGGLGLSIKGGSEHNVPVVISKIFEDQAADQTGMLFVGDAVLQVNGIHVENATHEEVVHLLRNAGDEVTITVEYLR

[4] = target: T7, syntrophin β2 (PDZ domain on the array) (UniProt Q13425)
T7 sequence: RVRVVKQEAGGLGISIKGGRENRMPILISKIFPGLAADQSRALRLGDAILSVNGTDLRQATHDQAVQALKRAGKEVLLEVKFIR

[5] = target: densin‐180 (PDZ domain on the array)
MAGI‐3 (PDZ domain 5) = target: MAGI‐3 (PDZ domain 5)

binding [1]: no binding
binding (PDZK1 (PDZ domain 1)): no binding
binding [2]: no binding
binding (NHERF‐1 (PDZ domain 1)): no binding
binding (MUPP1 (PDZ domain 7)): no binding
binding [3]: no binding
binding [4]: no binding
Molecule: GST only

binding [5]: binds weakly
binding (MAGI‐3 (PDZ domain 5)): binds
B1: GST/NBCn1 fusion protein containing the C‐terminal 26 amino acids of rat NBCn1 (domain or fragment, UniProt Q9R1N3-2 1229-1254, looked up)
chain: PEKPVSVTINFEDEPSKKYMDAETSL
notes: NBCn1 (SLC4A7), rat, the C-terminal 26 amino acids; also called C‐terminal domain of NBCn1 fused to GST; source: prepared as described previously (Lee et al. 2012)

Source: article PMC4098744, “Systematic family‐wide analysis of sodium bicarbonate cotransporter NBCn1/SLC4A7 interactions with PDZ scaffold proteins” (Physiological Reports, 2014)
